Source: article PMC9039026

Chains of the proteins cited; added tags and fusions are not shown. Lines headed by an entry give the natural chain unless they say otherwise; changes in a name come on top.
UniProt Q8IJ72: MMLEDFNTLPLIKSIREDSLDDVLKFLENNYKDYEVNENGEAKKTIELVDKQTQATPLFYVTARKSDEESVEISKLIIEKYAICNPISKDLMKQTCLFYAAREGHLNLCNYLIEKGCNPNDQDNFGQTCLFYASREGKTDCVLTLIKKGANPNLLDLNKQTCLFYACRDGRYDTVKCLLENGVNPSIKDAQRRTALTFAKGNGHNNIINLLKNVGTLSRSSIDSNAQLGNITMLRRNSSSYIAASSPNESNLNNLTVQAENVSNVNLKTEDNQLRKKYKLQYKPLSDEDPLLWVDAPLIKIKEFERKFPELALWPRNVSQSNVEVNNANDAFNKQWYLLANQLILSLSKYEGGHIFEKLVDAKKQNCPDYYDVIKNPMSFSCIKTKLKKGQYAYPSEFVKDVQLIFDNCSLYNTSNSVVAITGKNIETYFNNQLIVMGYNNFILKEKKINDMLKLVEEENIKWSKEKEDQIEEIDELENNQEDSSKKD
UniProt Q8I5S4: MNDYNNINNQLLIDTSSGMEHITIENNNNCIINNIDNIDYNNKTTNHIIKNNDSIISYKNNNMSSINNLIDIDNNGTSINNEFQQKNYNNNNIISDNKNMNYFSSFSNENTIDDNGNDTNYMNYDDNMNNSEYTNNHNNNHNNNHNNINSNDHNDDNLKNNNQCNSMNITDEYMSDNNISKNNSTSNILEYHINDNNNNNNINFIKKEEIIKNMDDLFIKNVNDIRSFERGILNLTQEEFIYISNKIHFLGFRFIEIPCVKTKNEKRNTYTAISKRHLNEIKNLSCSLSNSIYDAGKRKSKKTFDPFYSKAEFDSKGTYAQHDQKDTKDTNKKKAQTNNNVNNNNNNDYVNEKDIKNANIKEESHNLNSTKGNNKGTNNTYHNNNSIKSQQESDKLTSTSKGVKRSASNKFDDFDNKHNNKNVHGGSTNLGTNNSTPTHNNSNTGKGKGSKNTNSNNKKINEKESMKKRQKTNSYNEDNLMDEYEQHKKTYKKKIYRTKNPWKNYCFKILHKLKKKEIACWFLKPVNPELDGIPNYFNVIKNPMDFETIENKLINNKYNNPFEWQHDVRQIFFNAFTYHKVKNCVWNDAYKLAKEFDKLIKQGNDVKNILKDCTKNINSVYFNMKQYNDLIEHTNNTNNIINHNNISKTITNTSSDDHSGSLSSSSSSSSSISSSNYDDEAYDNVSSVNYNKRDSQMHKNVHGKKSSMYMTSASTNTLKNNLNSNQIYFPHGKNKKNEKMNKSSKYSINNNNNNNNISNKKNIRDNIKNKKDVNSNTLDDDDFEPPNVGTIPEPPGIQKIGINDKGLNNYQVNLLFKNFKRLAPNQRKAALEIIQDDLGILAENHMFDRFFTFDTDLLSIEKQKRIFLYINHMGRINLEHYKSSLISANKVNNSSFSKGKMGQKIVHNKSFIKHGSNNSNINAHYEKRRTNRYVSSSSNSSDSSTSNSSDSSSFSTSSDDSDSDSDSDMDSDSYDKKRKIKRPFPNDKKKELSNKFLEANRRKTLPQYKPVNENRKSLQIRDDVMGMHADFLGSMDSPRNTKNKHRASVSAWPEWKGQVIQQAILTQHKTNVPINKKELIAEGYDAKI
UniProt Q8IB66: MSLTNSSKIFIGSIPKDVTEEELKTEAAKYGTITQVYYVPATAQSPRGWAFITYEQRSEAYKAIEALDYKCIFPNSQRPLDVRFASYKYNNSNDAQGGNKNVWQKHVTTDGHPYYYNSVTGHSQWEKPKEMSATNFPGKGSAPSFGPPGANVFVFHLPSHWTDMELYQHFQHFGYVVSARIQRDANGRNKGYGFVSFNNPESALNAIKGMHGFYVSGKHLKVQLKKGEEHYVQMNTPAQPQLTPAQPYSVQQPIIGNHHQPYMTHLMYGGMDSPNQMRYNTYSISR

Biological target: PfBDP1HA (P. falciparum bromodomain protein 1, HA-tagged) (P. falciparum) (UniProt Q8IJ72)
Experiment: affinity purification with mass spectrometry; co-IP with anti-HA or anti-Ty from nuclear extracts of PfBDP1HA::PfBDP7BirATy parasites and with anti-Ty from PfBDP7Ty_GlmS parasites; LC-MS of eluates; negative controls anti-Ty IP in 3D7 wild type and non-immune IgG

## PfBDP2 (P. falciparum bromodomain protein 2) (from UniProt Q8I5S4)
  binding: binds

## predicted RNA-binding protein Pf3D7_0823200 (from UniProt Q8IB66)
  binding: binds

No constants are given. Whether binding was seen depends on the method and setting. Binding seen in cells or lysates may run through a third protein. Here binding means that the protein was enriched with, or labelled near, the bait; the list need not be complete.
